# Source: the supplement of paper PMC11732987, “Enantioselective OTUD7B fragment discovery through chemoproteomics screening and high-throughput optimisation” (Communications Chemistry, 2025)
# Protein sequences, listed by entry. Tags and fused reporters are not part of them. Lines headed by an entry give the natural chain unless they say otherwise; changes in a name come on top. Residues count along the entry.
# UniProt Q02952, 1457-1482: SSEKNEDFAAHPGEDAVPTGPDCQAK
# UniProt Q7Z6V5, 5-24: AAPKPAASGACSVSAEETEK
# UniProt Q53H12: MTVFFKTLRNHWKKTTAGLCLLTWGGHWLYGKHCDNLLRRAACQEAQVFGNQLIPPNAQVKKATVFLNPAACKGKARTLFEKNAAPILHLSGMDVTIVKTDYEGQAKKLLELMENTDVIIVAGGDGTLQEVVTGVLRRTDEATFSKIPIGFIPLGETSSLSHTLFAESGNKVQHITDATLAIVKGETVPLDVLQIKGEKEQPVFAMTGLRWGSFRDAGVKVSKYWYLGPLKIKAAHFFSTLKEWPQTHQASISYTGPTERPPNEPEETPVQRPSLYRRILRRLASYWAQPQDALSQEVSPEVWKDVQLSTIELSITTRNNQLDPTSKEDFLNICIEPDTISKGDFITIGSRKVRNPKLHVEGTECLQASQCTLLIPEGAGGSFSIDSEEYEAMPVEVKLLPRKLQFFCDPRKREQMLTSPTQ
# UniProt Q09666, 1880-1904: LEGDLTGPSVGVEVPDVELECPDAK
# UniProt Q12802: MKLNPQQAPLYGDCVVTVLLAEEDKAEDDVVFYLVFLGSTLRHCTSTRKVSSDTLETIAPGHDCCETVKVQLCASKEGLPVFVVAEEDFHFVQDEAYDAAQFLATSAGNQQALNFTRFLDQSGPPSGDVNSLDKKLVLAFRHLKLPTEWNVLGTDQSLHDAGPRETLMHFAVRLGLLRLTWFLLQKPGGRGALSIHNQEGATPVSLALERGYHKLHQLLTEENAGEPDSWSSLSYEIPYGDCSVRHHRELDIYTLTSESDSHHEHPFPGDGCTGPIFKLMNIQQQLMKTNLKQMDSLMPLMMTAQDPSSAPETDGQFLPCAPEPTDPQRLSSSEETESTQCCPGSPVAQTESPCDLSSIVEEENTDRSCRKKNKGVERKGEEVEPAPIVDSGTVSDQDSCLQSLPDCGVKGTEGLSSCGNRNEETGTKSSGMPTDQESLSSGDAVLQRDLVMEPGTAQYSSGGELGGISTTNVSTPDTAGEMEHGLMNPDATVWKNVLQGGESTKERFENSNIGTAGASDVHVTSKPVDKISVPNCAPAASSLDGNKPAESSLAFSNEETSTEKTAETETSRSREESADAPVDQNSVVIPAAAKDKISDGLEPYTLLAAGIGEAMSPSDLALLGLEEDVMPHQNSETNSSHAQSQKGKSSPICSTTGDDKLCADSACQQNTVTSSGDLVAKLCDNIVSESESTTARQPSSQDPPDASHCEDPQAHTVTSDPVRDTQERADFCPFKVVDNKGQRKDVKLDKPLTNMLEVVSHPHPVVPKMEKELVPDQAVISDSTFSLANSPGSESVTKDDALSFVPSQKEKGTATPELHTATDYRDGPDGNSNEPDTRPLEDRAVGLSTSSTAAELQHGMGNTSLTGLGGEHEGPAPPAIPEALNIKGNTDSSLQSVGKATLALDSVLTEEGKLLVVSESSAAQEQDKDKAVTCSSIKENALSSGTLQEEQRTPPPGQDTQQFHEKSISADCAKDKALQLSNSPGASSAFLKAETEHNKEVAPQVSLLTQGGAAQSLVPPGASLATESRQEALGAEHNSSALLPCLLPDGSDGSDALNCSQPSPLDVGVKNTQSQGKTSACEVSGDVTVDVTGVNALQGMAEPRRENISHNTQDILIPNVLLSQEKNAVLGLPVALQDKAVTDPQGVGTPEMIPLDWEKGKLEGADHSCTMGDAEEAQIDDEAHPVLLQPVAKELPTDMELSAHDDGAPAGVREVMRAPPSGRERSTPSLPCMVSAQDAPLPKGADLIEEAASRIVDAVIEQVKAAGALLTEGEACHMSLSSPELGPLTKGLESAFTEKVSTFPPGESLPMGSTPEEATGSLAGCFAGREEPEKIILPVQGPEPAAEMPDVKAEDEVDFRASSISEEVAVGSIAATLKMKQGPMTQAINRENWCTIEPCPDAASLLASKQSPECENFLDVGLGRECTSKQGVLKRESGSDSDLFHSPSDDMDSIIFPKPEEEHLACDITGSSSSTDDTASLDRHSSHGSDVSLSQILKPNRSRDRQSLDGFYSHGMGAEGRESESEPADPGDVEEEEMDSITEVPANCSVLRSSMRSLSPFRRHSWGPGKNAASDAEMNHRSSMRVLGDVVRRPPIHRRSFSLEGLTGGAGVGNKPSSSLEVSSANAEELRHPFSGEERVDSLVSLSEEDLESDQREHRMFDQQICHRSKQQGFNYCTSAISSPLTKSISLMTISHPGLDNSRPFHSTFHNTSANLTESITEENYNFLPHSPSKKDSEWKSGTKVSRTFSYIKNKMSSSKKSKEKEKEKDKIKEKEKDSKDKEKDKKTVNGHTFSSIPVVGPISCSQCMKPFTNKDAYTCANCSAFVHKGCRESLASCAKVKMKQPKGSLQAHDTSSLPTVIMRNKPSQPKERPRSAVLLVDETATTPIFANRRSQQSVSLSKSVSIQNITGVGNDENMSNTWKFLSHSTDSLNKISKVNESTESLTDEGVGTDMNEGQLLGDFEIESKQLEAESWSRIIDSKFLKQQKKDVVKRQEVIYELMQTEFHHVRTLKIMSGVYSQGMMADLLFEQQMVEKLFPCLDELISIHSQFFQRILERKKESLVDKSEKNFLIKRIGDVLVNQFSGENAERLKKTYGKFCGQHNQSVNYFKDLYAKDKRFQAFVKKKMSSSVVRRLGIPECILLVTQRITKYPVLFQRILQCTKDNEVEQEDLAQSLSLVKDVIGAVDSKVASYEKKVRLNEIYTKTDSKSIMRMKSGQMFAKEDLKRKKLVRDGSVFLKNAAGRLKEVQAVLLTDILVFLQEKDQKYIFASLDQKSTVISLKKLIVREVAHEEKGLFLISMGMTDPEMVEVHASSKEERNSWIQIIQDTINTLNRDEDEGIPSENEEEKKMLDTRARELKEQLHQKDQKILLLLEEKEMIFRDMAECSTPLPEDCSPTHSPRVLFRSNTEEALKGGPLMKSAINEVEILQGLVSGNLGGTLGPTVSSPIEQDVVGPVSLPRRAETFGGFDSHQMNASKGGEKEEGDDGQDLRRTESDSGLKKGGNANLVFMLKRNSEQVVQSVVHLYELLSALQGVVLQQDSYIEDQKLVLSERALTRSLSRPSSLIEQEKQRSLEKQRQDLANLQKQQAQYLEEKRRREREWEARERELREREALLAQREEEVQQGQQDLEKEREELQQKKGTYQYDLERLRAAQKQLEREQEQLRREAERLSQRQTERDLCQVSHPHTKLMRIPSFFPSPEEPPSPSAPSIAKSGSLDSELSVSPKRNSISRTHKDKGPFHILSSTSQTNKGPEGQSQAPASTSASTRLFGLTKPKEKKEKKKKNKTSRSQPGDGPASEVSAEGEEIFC
# UniProt Q9UJX3, whole entry, looked up: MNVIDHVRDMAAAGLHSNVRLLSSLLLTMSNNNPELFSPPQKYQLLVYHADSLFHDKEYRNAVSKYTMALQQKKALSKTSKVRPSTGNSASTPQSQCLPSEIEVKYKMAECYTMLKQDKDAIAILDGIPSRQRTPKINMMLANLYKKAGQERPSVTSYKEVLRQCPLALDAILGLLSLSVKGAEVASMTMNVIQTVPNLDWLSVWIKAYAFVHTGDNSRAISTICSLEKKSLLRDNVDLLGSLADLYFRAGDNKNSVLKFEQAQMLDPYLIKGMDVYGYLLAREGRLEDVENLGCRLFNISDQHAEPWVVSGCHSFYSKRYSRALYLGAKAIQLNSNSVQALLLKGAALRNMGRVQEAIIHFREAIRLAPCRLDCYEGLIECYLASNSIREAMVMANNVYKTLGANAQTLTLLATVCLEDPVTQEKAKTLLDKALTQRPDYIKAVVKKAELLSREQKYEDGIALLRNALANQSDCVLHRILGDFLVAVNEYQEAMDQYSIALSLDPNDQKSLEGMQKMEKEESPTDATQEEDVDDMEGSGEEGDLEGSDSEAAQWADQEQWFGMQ
# UniProt Q9UJX3, 82-105: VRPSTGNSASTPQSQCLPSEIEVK
# UniProt P49419, 475-500: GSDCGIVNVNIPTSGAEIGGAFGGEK
# UniProt P14550: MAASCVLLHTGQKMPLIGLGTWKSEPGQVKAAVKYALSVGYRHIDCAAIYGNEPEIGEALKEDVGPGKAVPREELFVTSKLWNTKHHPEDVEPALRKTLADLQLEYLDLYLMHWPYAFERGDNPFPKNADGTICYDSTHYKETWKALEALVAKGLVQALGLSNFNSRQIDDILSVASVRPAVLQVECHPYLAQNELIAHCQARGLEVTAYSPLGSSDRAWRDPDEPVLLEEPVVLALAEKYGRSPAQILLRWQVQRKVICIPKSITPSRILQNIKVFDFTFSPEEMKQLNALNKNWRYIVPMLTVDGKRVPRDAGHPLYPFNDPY
# UniProt P55265: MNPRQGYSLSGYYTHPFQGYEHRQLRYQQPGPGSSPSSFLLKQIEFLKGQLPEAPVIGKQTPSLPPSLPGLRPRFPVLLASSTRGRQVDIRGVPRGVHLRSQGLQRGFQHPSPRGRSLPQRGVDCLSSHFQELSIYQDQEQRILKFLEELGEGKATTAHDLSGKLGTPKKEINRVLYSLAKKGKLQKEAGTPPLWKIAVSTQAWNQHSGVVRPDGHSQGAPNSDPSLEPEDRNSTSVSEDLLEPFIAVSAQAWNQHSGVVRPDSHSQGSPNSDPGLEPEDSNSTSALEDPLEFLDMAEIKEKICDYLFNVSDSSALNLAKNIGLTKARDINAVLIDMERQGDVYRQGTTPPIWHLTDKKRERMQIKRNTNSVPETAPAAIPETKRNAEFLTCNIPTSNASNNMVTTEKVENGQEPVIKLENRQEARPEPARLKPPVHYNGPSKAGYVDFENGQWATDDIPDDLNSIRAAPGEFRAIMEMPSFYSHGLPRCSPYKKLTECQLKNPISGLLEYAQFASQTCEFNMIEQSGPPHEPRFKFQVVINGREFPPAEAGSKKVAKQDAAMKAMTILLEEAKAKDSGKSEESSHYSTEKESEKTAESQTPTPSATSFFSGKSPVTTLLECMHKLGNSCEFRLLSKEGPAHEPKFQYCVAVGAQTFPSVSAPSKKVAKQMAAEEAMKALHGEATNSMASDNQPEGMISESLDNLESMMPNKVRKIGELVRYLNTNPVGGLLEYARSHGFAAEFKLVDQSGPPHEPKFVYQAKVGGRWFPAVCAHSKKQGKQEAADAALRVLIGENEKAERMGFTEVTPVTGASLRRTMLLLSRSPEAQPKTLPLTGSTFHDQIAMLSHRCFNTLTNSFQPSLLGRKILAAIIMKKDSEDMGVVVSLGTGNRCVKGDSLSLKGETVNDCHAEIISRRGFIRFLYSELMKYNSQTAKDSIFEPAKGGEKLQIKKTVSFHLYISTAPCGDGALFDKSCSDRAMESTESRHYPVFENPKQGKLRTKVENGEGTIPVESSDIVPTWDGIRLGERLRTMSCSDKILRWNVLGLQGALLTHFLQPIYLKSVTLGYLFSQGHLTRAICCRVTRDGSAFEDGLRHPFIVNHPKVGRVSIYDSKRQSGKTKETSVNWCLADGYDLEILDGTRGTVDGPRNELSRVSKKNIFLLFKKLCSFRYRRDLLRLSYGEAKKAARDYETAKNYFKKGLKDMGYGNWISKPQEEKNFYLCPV
# UniProt Q9BWD1, 342-361: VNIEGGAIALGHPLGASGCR
# UniProt P30520, 2-22: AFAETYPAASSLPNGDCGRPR
# UniProt P00568, 172-194: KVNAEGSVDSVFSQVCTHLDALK
# UniProt Q8IY63: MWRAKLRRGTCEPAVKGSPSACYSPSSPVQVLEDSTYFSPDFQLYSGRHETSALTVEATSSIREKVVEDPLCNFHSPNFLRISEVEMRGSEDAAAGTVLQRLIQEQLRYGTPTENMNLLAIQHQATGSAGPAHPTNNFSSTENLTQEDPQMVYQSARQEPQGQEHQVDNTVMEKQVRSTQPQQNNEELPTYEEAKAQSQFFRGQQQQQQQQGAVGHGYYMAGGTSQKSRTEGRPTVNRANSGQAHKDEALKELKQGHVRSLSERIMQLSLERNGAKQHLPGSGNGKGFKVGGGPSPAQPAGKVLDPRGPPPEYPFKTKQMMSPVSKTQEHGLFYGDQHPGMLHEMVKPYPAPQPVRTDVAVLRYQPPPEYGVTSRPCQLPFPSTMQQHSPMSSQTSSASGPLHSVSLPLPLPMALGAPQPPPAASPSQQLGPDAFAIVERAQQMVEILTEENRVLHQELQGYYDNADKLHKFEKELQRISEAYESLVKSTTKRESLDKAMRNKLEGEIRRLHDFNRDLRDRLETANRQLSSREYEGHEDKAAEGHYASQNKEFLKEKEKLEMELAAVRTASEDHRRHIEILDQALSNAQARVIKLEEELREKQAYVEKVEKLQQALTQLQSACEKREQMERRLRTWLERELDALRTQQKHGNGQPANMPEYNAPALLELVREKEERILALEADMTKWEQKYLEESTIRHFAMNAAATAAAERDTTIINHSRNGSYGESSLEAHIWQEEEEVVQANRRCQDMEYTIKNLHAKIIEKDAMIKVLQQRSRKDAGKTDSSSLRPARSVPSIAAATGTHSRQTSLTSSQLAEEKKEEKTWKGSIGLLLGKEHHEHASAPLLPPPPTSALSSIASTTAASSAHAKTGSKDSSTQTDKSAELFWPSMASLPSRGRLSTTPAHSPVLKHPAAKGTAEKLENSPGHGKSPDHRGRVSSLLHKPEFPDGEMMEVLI
# UniProt Q9UKA4, 214-234: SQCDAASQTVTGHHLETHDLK
# UniProt Q02040, 136-157: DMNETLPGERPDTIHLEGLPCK
# UniProt P05091, 53-78: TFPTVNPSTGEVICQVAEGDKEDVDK
# This is one part of the list. The data scatter; read single values as rough.
# Experiments:
# [1] = compound: ClCC(=O)N[C@@H]1CCCc2ccccc12; experiment: log2 mean competition ratio of IA-DTB cysteine labelling (DMSO/compound) (log2 ratio); higher = stronger cysteine engagement by compound; details: treatment time: 4 h, cell line lysate: HEK293T
# Experimental: (§1)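 IA-DTB competitive cysteine chemoproteomics in HEK293T RIPA lysate. Lysates were treated with compound 29 or 30 at 50 or 200 µM for 4 h, then IA-DTB (500 µM, 1 h), trypsin-digested, NeutrAvidin-enriched and analysed by diaPASEF. Competition ratio = intensity DMSO / intensity compound (n=4 treated, n=64 DMSO); binding: mean log2 CR ≥ 1 and p ≤ 0.05 plus QC filters. Target is the cysteine site.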
# [2] = compound: ClCC(=O)N[C@H]1CCCc2ccccc12; experiment: as above; details: treatment time: 4 h, cell line lysate: HEK293T
# Experimental: as §1
Target,log2 mean competition ratio ([1]; 50 µM),log2 mean competition ratio ([1]; 200 µM),log2 mean competition ratio ([2]; 50 µM),log2 mean competition ratio ([2]; 200 µM)
AKAP12 C1479 (UniProt Q02952),-0.174,-0.193,,
AKT1 C60 (UniProt P31749),1,0.119,,
ANAPC4 C697 (UniProt Q9UJX5),-0.193,-0.133,,
ADAT2 C15 (UniProt Q7Z6V5),0.39,-0.388,,
ADD2 C177 (UniProt P35612),-0.142,-0.16,,
AFAP1 C395 (UniProt Q8N556),-0.191,-0.0909,,
ADD1 C525 (UniProt P35611),0.372,0.38,,
AGK C72 (UniProt Q53H12),0.106,-0.0386,,
AKAP10 C110 (UniProt O43572),-0.0659,0.133,,
ALS2 C1376 (UniProt Q96Q42),-0.216,-0.162,,
AFG3L2 C626 (UniProt Q9Y4W6),0.268,-0.0272,,
AGK C334 (UniProt Q53H12),-0.359,0.0847,,
AHDC1 C791 (UniProt Q5TGY3),-0.0351,0.0602,,
AHNAK C1900(C1967) (UniProt Q09666),-0.307,0.0257,,
AKAP9 C2765 (UniProt Q99996),0.183,0.128,,
AKAP13 C1666 (UniProt Q12802),-0.135,0.263,,
AKAP9 C2571 (UniProt Q99996),0.188,0.354,,
ALDH1L2 C783 (UniProt Q3SY69),0.0306,-0.0559,,
AFG3L2 C313 (UniProt Q9Y4W6),0.13,0.251,,
ALG5 C236 (UniProt Q9Y673),-0.0269,0.114,,
ANAPC7 C475 (UniProt Q9UJX3),0.199,0.977,,
ANKFY1 C675 (UniProt Q9P2R3),-0.0584,-0.407,,
ANK2 C3859 (UniProt Q01484),0.0969,0.531,,

Target,log2 mean competition ratio ([1]; 50 µM),log2 mean competition ratio ([1]; 200 µM),log2 mean competition ratio ([2]; 50 µM),log2 mean competition ratio ([2]; 200 µM)
ACBD5 C83 (UniProt Q5T8D3),-0.195,0.433,,
AKAP2 C205 (UniProt Q9Y2D5),0.134,0.11,,
ALG13 C424 (UniProt Q9NP73),0.201,-0.335,,
ALDH7A1 C70 (UniProt P49419),-0.135,-0.287,,
AGPS C413 (UniProt O00116),-0.0826,-0.112,,
AKAP9 C1782 (UniProt Q99996),-0.144,0.17,,
ALDH5A1 C272 (UniProt P51649),-0.163,-0.0812,,
AKAP1 C64 (UniProt Q92667),-0.346,0.327,,
AKR1A1 C134 (UniProt P14550),-0.357,-0.037,,
ADAR C499 (UniProt P55265),-0.0129,-0.173,,
ADAMTS1 C333,-0.0939,0.245,,
ALG13 C86 (UniProt Q9NP73),0.123,-0.112,,
ACAT2 C360 (UniProt Q9BWD1),0.355,0.0829,,
AFDN C870,0.354,-0.292,,
ACOT9 C299 (UniProt Q9Y305),0.0996,0.0534,-0.099,0.0194
ADSS2 C18 (UniProt P30520),-0.275,-0.0977,,
ALDH7A1 C478 (UniProt P49419),-0.15,0.49,-0.0466,0.0998
AK1 C187 (UniProt P00568),0.376,0.291,,
ADAR C630 (UniProt P55265),0.0594,0.173,0.0812,0.17
AMOTL1 C623 (UniProt Q8IY63),0.02,0.172,,
ACSS2 C75 (UniProt Q9NR19),0.148,-0.045,-0.561,-0.228
AHCYL2 C187 (UniProt Q96HN2),-0.249,-0.00824,-0.217,0.0057
ACD C399 (UniProt Q96AP0),-0.0993,0.331,,

Target,log2 mean competition ratio ([1]; 50 µM),log2 mean competition ratio ([1]; 200 µM),log2 mean competition ratio ([2]; 50 µM),log2 mean competition ratio ([2]; 200 µM)
AKAP9 C3081 (UniProt Q99996),0.199,-0.352,,
ALPK1 C512 (UniProt Q96QP1),0.00275,-0.14,,
ACOT1 C339,0.0272,0.219,0.127,0.115
AKAP11 C1587 (UniProt Q9UKA4),0.158,0.183,,
AHCYL1 C317 (UniProt O43865),-0.391,-0.261,-0.403,-0.0274
ANGEL2 C139 (UniProt Q5VTE6),0.408,0.409,,
ADRM1 C88 (UniProt Q16186),-0.149,-0.0344,,
AJUBA C338 (UniProt Q96IF1),-0.111,-0.198,,
ANAPC7 C225 (UniProt Q9UJX3),-0.0301,0.0423,0.137,0.00101
AHCYL1 C106 (UniProt O43865),-0.146,-0.483,,
ALDH9A1 C96 (UniProt P49189),-0.466,-0.245,,
ALKBH5 C378 (UniProt Q6P6C2),0.184,-0.207,0.0585,-0.294
ANK2 C1425 (UniProt Q01484),0.0348,0.0853,,
AKAP13 C2685 (UniProt Q12802),-0.18,0.0163,,
AGGF1 C307 (UniProt Q8N302),-0.462,0.489,,
ANAPC7 C97 (UniProt Q9UJX3),0.281,0.308,,
AKAP12 C1521 (UniProt Q02952),-0.272,-0.0371,-0.582,-0.0507
AHR C639,-0.345,0.19,,
ALDH9A1 C267 (UniProt P49189),-0.417,-0.273,,
ADAT1 C186 (UniProt Q9BUB4),-0.373,0.0481,,
ADAR C909 (UniProt P55265),-0.25,0.0229,-0.372,0.0117
ALDH4A1 C315 (UniProt P30038),-0.152,-0.0218,,
AKAP13 C73 (UniProt Q12802),0.00445,-0.215,,

Target,log2 mean competition ratio ([1]; 50 µM),log2 mean competition ratio ([1]; 200 µM),log2 mean competition ratio ([2]; 50 µM),log2 mean competition ratio ([2]; 200 µM)
AFDN C841,-0.395,0.132,0.0526,0.0589
AGTPBP1 C971 (UniProt Q9UPW5),-0.0409,0.213,-0.0381,0.196
ACSS3 C498 (UniProt Q9H6R3),0.218,-0.0813,,
ANKHD1 C873,0.517,-0.299,,
AMOT C862 (UniProt Q4VCS5),-0.0829,0.105,-0.0402,0.242
ACSF2 C77 (UniProt Q96CM8),-0.0993,-0.133,-0.257,-0.145
AKAP13 C732 (UniProt Q12802),0.0651,-0.00854,-0.0644,0.178
AKAP17A C522 (UniProt Q02040),-0.0586,0.204,-0.192,0.288
ADAM15 C733 (UniProt Q13444),0.188,0.285,0.0854,0.149
AKAP13 C418 (UniProt Q12802),-0.046,0.159,0.0952,0.179
ALAS1 C544 (UniProt P13196),-0.0849,0.132,-0.382,0.185
AMOT C617 (UniProt Q4VCS5),0.322,0.0819,0.43,0.0189
ALDH6A1 C317 (UniProt Q02252),1.12,0.737,0.637,0.389
ALMS1 C2489 (UniProt Q8TCU4),0.203,0.324,-0.272,0.0343
ACTR10 C27 (UniProt Q9NZ32),-0.0828,-0.177,-0.00282,-0.158
ACTL6A C32 (UniProt O96019),0.0541,-0.213,-0.352,-0.308
ADGRE5 C802,0.637,0.203,0.313,0.16
AKAP11 C216 (UniProt Q9UKA4),0.106,-0.164,-0.27,-0.235
ALDH6A1 C368 (UniProt Q02252),0.00493,-0.0182,-0.343,0.102
AKAP12 C1314 (UniProt Q02952),-0.322,-0.091,-0.416,0.143
ADCY9 C654 (UniProt O60503),-0.439,-0.00984,-0.231,-0.237
ACSL3 C166 (UniProt O95573),-0.17,-0.342,-0.145,-0.404
ACSF2 C194 (UniProt Q96CM8),-0.46,-0.102,0.0547,-0.115

Target,log2 mean competition ratio ([1]; 50 µM),log2 mean competition ratio ([1]; 200 µM),log2 mean competition ratio ([2]; 50 µM),log2 mean competition ratio ([2]; 200 µM)
ALDH2 C66 (UniProt P05091),-0.397,-0.084,-0.0367,-0.277
ACIN1 C691,-0.323,-0.00895,-0.0777,-0.092
AMDHD2 C338 (UniProt Q9Y303),-0.0507,0.0466,-0.538,-0.108
ACTR3 C235 (UniProt P61158),0.241,0.0472,-0.193,0.0382
AKAP9 C3581 (UniProt Q99996),-0.338,-0.328,-0.0739,-0.0488
ADGRL2 C148,0.0477,0.637,-0.282,0.0204
ANK3 C307 (UniProt Q12955),0.299,-0.0514,0.659,-0.0361
ACTR5 C265 (UniProt Q9H9F9),0.214,0.355,-0.0959,0.221
ACTR2 C11 (UniProt P61160),0.184,0.205,-0.0186,0.282
AKAP17A C95 (UniProt Q02040),-0.0447,0.00622,-0.365,0.0234
AIMP2 C205 (UniProt Q13155),-0.0429,-0.415,-0.292,-0.513
AGPAT1 C229 (UniProt Q99943),-0.081,0.113,-0.0448,0.0833
AGK C408 (UniProt Q53H12),-0.0999,-0.198,-0.239,-0.0144
ANKLE2 C203 (UniProt Q86XL3),0.0496,0.54,-0.0654,0.46
ALDH2 C386 (UniProt P05091),0.35,0.423,0.247,0.032
AKAP17A C156 (UniProt Q02040),-0.366,0.496,-0.295,0.208
ANAPC5 C86 (UniProt Q9UJX4),-0.327,0.0707,-0.107,0.126
ALG3 C21 (UniProt Q92685),-0.0526,0.11,-0.123,0.105
ANAPC4 C536 (UniProt Q9UJX5),-0.228,0.294,-0.172,0.128
ADCY3 C463 (UniProt O60266),-0.078,0.564,-0.428,0.0267

# Laid out differently: entries from further up.
Target	log2 mean competition ratio ([1]; 50 µM)	log2 mean competition ratio ([1]; 200 µM)	log2 mean competition ratio ([2]; 50 µM)	log2 mean competition ratio ([2]; 200 µM)
ALDH2 C66 (UniProt P05091)	-0.397	-0.084	-0.0367	-0.277
AKAP9 C3581 (UniProt Q99996)	-0.338	-0.328	-0.0739	-0.0488
ADGRL2 C148	0.0477	0.637	-0.282	0.0204
AGPAT1 C229 (UniProt Q99943)	-0.081	0.113	-0.0448	0.0833
ALDH2 C386 (UniProt P05091)	0.35	0.423	0.247	0.032
